Data on 21 molecules can be found in PMC7850985.

Sequences of proteins named here, by UniProt entry; tags and fusion partners are left off. Residues count along the entry.
UniProt P35247, residues 199-375: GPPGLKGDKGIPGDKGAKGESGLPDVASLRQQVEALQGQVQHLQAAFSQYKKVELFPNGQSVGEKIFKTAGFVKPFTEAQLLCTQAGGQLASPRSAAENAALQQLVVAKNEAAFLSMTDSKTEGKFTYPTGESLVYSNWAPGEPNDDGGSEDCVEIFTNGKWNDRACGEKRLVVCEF
UniProt P06733: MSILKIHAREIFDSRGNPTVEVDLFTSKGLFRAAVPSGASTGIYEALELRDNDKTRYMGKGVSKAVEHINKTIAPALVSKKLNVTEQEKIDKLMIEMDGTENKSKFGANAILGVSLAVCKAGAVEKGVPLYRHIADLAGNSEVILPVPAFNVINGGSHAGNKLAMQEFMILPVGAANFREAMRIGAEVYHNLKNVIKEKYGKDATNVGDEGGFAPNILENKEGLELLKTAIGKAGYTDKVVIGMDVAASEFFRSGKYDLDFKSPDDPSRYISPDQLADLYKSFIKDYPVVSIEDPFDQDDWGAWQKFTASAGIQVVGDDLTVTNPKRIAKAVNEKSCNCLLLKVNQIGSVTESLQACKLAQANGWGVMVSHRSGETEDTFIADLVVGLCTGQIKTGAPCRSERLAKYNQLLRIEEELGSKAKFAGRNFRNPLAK
UniProt P80188, residues 21-198: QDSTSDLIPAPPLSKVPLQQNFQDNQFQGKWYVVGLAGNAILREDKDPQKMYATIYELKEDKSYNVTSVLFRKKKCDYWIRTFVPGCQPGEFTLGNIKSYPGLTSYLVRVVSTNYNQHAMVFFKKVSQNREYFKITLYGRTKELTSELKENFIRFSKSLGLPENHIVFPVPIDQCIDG
UniProt P38646, residues 47-679: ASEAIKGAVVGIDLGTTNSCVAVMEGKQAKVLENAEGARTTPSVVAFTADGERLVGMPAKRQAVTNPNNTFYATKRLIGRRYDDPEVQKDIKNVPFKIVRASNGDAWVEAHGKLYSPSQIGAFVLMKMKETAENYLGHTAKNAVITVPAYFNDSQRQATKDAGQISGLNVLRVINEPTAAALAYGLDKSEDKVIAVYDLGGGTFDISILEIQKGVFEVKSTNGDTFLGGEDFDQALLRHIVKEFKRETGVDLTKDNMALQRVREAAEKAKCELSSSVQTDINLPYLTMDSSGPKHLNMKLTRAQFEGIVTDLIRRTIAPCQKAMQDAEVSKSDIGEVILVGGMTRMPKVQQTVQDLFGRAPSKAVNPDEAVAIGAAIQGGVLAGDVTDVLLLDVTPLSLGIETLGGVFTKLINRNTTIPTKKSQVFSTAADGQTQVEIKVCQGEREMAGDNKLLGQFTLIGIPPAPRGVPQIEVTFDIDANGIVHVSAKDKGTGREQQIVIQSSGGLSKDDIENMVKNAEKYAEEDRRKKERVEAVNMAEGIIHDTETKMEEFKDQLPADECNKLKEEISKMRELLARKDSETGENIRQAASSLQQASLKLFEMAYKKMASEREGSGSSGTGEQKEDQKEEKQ
UniProt P34932: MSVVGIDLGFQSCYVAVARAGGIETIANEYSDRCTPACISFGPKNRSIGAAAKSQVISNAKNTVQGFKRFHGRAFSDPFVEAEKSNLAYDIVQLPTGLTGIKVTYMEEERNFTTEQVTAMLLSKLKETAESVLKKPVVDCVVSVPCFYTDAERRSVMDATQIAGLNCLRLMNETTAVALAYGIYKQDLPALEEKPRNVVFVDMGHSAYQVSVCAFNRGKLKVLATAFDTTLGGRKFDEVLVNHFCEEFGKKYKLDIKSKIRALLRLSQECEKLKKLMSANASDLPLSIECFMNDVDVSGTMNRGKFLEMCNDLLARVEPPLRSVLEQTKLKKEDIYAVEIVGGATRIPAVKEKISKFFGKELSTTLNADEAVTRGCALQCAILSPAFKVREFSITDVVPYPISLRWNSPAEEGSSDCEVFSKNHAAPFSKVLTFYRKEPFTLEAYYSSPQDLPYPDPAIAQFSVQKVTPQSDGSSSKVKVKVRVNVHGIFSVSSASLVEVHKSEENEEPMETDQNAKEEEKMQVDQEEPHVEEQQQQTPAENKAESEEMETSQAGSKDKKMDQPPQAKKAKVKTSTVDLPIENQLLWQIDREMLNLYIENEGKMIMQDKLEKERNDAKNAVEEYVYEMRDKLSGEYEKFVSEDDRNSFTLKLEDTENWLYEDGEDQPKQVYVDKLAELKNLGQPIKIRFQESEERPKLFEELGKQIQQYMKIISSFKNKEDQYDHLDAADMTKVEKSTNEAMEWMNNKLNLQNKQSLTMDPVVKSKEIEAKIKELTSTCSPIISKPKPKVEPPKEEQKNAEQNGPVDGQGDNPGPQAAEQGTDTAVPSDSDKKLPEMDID
UniProt P11142: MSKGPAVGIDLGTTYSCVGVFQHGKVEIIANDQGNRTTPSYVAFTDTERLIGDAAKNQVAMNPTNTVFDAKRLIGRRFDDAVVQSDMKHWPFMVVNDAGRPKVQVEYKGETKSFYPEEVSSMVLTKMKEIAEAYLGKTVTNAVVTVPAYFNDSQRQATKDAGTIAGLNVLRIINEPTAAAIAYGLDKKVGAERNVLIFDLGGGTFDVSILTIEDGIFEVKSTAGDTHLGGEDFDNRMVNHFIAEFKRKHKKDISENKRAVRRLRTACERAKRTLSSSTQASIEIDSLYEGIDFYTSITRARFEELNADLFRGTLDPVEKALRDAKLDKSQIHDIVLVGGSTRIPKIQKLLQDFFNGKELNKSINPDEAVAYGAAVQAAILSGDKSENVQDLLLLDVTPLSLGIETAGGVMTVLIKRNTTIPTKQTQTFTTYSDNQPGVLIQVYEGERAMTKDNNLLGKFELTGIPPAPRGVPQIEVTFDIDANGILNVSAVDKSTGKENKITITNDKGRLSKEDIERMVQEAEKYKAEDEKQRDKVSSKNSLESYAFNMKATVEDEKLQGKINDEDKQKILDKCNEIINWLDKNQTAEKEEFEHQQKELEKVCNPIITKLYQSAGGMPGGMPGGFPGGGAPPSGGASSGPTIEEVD
UniProt P50990: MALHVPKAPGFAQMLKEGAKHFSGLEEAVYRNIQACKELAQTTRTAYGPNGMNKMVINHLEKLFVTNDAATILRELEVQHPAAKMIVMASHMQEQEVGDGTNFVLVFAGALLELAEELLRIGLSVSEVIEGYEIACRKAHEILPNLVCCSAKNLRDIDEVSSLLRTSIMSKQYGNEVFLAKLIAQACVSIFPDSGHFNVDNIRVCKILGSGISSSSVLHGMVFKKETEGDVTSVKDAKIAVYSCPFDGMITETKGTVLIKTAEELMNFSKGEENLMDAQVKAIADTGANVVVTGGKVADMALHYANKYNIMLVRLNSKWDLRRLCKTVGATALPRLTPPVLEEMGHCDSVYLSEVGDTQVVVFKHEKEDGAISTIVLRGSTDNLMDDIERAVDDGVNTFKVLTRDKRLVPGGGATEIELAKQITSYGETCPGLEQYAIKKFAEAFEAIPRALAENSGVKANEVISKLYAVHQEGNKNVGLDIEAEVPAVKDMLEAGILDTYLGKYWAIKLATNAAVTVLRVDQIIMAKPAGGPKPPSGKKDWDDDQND
UniProt P11021, residues 19-654: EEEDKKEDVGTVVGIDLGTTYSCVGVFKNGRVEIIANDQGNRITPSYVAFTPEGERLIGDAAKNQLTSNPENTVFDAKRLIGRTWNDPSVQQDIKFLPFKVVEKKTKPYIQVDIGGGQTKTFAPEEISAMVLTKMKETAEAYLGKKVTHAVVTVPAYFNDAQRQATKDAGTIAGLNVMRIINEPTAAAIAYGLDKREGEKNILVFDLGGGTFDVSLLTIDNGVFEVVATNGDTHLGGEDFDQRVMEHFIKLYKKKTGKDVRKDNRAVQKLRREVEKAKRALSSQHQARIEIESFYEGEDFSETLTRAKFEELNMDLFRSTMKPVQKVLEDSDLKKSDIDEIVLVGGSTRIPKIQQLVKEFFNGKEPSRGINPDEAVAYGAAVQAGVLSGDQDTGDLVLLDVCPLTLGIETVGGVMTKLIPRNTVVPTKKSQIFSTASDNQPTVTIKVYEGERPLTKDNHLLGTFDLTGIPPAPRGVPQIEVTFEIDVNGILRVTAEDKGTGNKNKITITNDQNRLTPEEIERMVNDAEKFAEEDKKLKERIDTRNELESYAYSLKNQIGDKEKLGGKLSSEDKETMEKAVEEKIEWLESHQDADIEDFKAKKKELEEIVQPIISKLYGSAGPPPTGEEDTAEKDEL
UniProt Q07021, residues 74-282: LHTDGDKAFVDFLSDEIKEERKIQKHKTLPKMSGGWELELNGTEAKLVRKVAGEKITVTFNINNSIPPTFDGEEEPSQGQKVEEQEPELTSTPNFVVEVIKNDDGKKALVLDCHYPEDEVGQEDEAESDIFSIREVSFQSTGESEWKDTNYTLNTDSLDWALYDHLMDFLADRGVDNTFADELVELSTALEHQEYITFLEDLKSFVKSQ
UniProt P04406: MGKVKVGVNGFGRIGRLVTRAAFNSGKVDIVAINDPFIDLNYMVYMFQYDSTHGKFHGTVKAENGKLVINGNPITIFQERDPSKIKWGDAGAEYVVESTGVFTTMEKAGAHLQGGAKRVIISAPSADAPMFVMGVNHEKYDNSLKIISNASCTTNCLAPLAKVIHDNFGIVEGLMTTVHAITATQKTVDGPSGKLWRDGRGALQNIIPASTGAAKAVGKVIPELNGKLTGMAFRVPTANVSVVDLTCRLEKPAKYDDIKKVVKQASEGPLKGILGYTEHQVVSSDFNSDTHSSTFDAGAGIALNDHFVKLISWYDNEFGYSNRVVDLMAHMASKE
UniProt P31025, residues 19-176: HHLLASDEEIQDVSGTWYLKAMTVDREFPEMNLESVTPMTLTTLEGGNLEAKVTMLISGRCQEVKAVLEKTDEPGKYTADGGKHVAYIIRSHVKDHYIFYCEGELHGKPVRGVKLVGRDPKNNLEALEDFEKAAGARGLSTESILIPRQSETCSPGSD
UniProt P14625, residues 22-803: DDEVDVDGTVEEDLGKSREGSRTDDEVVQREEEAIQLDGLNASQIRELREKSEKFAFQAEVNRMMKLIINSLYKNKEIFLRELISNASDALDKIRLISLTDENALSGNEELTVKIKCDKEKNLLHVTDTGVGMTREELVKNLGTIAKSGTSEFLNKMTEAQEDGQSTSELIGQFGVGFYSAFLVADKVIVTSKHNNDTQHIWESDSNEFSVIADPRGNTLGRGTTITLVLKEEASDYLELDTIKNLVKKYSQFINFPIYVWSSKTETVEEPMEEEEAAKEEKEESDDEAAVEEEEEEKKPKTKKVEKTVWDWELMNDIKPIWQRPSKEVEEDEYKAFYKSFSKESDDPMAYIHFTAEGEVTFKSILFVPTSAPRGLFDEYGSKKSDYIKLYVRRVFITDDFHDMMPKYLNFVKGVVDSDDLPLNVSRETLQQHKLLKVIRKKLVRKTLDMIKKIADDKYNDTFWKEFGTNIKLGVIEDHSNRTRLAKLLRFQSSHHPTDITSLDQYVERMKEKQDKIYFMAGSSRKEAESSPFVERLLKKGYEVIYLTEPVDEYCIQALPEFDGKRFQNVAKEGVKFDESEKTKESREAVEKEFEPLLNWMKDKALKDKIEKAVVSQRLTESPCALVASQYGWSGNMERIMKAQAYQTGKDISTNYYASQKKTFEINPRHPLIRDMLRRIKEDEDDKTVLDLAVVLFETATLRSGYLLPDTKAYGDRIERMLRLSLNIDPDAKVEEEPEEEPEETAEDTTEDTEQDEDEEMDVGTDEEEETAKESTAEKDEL
UniProt P10809, residues 27-573: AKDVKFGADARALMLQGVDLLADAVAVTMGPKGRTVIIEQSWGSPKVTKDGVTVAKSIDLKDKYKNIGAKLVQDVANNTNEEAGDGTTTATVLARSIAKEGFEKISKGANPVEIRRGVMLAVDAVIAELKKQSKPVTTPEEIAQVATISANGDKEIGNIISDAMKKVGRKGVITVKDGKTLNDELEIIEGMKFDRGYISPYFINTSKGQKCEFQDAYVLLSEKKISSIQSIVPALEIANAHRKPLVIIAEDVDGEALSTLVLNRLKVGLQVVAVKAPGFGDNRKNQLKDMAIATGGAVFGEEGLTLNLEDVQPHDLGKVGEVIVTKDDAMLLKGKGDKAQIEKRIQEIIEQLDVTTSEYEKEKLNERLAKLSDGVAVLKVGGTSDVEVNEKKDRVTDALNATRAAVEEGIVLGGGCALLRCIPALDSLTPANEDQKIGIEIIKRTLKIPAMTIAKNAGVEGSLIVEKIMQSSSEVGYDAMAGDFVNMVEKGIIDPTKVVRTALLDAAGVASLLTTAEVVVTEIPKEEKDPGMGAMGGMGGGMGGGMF

Results are given in words; binding and its absence hold for the method and conditions named. In cells and extracts the contact can be indirect. A yes stands for co-enrichment or nearness to the bait. Other partners may have been found.

In the test the target is recombinant fragment of human surfactant protein D (rfhSP-D) (human) (UniProt P35247). The test can be described thus: affinity purification with mass spectrometry; PC3 cells pre-incubated with rfhSP-D (20 µg/ml, 5 mM CaCl2, 2 h, 37°C), washed; membrane protein extract with bound rfhSP-D precipitated with polyclonal anti-human SP-D antibody on protein A/G magnetic beads; eluate depleted of HSA/IgG; LC-MS/MS; only the target purified.

Turning to ENO1 (from UniProt P06733 1-434), the binding entry was “binds”.
The same measure for LCN2 (from UniProt P80188 21-198): “binds”.
The value for VCP (from UniProt P55072 1-806) was “binds”.
For “CALR (Calreticulin) (from UniProt P27797 18-417)”, the binding result was “binds”.
The same measure for HSPA9 (from UniProt P38646 47-679): “binds”; for HSPA4 (from UniProt P34932 1-840): “binds”; for HSPA8 (from UniProt P11142 1-646): “binds”.
The same measure for CCT8 (from UniProt P50990 1-548): “binds”.
As to “Glucose Regulated Protein of 78 kDa (GRP78), endogenous in PC3 membrane fraction (from UniProt P11021 19-654)”, the binding entry was “binds”.
The value for “C1QBP (C1q receptor, gC1qR) (from UniProt Q07021 74-282)” was “binds”; that for CCT5 (from UniProt P48643 1-541) was “binds”.
The value for HSP90AA1 (from UniProt P07900 1-732) was “binds”; that for GAPDH (from UniProt P04406 1-335) was “binds”; that for LCN1 (from UniProt P31025 19-176) was “binds”.
The same measure for HSP90AB1 (from UniProt P08238 1-724): “binds”.
On to HSP90B1 (from UniProt P14625 22-803), for which the binding entry is reported as “binds”.
The value for HSPD1 (from UniProt P10809 27-573) was “binds”.

B1: CCT2 (protein, UniProt P78371 1-535)
chain: MASLSLAPVNIFKAGADEERAETARLTSFIGAIAIGDLVKSTLGPKGMDKILLSSGRDASLMVTNDGATILKNIGVDNPAAKVLVDMSRVQDDEVGDGTTSVTVLAAELLREAESLIAKKIHPQTIIAGWREATKAAREALLSSAVDHGSDEVKFRQDLMNIAGTTLSSKLLTHHKDHFTKLAVEAVLRLKGSGNLEAIHIIKKLGGSLADSYLDEGFLLDKKIGVNQPKRIENAKILIANTGMDTDKIKIFGSRVRVDSTAKVAEIEHAEKEKMKEKVERILKHGINCFINRQLIYNYPEQLFGAAGVMAIEHADFAGVERLALVTGGEIASTFDHPELVKLGSCKLIEEVMIGEDKLIHFSGVALGEACTIVLRGATQQILDEAERSLHDALCVLAQTVKDSRTVYGGGCSEMLMAHAVTQLANRTPGKEAVAMESYAKALRMLPTIIADNAGYDSADLVAQLRAAHSEGNTTAGLDMREGTIGDMAILGITESFQVKRQVLLSAAEAAEVILRVDNIIKAAPRKRVPDHHPC
Turning to B1, the binding result is “binds”.

B2: S100A7 (protein, UniProt P31151 1-101)
chain: MSNTQAERSIIGMIDMFHKYTRRDDKIEKPSLLTMMKENFPNFLSACDKKGTNYLADVFEKKDKNEDKKIDFSEFLSLLGDIATDYHKQSHGAAPCSGGSQ
Regarding B2, the binding entry is on record as “binds”.

B3: PDIA6 (protein, UniProt Q15084 20-440)
chain: LYSSSDDVIELTPSNFNREVIQSDSLWLVEFYAPWCGHCQRLTPEWKKAATALKDVVKVGAVDADKHHSLGGQYGVQGFPTIKIFGSNKNRPEDYQGGRTGEAIVDAALSALRQLVKDRLGGRSGGYSSGKQGRSDSSSKKDVIELTDDSFDKNVLDSEDVWMVEFYAPWCGHCKNLEPEWAAAASEVKEQTKGKVKLAAVDATVNQVLASRYGIRGFPTIKIFQKGESPVDYDGGRTRSDIVSRALDLFSDNAPPPELLEIINEDIAKRTCEEHQLCVVAVLPHILDTGAAGRNSYLEVLLKLADKYKKKMWGWLWTEAGAQSELETALGIGGFGYPAMAAINARKMKFALLKGSFSEQGINEFLRELSFGRGSTAPVGGGAFPTIVEREPWDGRDGELPVEDDIDLSDVELDDLGKDEL
As for B3, the binding result is listed as “binds”.

B4: A2ML1 (α2-macroglobulin-like protein 1) (protein, UniProt A8K2U0 18-1454)
chain: EELPNYLVTLPARLNFPSVQKVCLDLSPGYSDVKFTVTLETKDKTQKLLEYSGLKKRHLHCISFLVPPPAGGTEEVATIRVSGVGNNISFEEKKKVLIQRQGNGTFVQTDKPLYTPGQQVYFRIVTMDSNFVPVNDKYSMVELQDPNSNRIAQWLEVVPEQGIVDLSFQLAPEAMLGTYTVAVAEGKTFGTFSVEEYVLPKFKVEVVEPKELSTVQESFLVKICCRYTYGKPMLGAVQVSVCQKANTYWYREVEREQLPDKCRNLSGQTDKTGCFSAPVDMATFDLIGYAYSHQINIVATVVEEGTGVEANATQNIYISPQMGSMTFEDTSNFYHPNFPFSGKIRVRGHDDSFLKNHLVFLVIYGTNGTFNQTLVTDNNGLAPFTLETSGWNGTDVSLEGKFQMEDLVYNPEQVPRYYQNAYLHLRPFYSTTRSFLGIHRLNGPLKCGQPQEVLVDYYIDPADASPDQEISFSYYLIGKGSLVMEGQKHLNSKKKGLKASFSLSLTFTSRLAPDPSLVIYAIFPSGGVVADKIQFSVEMCFDNQVSLGFSPSQQLPGAEVELQLQAAPGSLCALRAVDESVLLLRPDRELSNRSVYGMFPFWYGHYPYQVAEYDQCPVSGPWDFPQPLIDPMPQGHSSQRSIIWRPSFSEGTDLFSFFRDVGLKILSNAKIKKPVDCSHRSPEYSTAMGAGGGHPEAFESSTPLHQAEDSQVRQYFPETWLWDLFPIGNSGKEAVHVTVPDAITEWKAMSFCTSQSRGFGLSPTVGLTAFKPFFVDLTLPYSVVRGESFRLTATIFNYLKDCIRVQTDLAKSHEYQLESWADSQTSSCLCADDAKTHHWNITAVKLGHINFTISTKILDSNEPCGGQKGFVPQKGRSDTLIKPVLVKPEGVLVEKTHSSLLCPKGKVASESVSLELPVDIVPDSTKAYVTVLGDIMGTALQNLDGLVQMPSGCGEQNMVLFAPIIYVLQYLEKAGLLTEEIRSRAVGFLEIGYQKELMYKHSNGSYSAFGERDGNGNTWLTAFVTKCFGQAQKFIFIDPKNIQDALKWMAGNQLPSGCYANVGNLLHTAMKGGVDDEVSLTAYVTAALLEMGKDVDDPMVSQGLRCLKNSATSTTNLYTQALLAYIFSLAGEMDIRNILLKQLDQQAIISGESIYWSQKPTPSSNASPWSEPAAVDVELTAYALLAQLTKPSLTQKEIAKATSIVAWLAKQHNAYGGFSSTQDTVVALQALAKYATTAYMPSEEINLVVKSTENFQRTFNIQSVNRLVFQQDTLPNVPGMYTLEASGQGCVYVQTVLRYNILPPTNMKTFSLSVEIGKARCEQPTSPRSLTLTIHTSYVGSRSSSNMAIVEVKMLSGFSPMEGTNQLLLQQPLVKKVEFGTDTLNIYLDELIKNTQTYTFTISQSVLVTNLKPATIKVYDYYLPDEQATIQYSDPCE
On to B4, for which the binding entry was “binds”.
